No constants are given. Whether binding was seen depends on the method and setting. Binding seen in cells or lysates may run through a third protein. Some results given as binding are weak or reduced against the parent protein; the word gives no strength. Tags and fused reporters may be left off the sequences shown.
Target: T1, occludin, V5-tagged (UniProt Q16625)
T1 sequence: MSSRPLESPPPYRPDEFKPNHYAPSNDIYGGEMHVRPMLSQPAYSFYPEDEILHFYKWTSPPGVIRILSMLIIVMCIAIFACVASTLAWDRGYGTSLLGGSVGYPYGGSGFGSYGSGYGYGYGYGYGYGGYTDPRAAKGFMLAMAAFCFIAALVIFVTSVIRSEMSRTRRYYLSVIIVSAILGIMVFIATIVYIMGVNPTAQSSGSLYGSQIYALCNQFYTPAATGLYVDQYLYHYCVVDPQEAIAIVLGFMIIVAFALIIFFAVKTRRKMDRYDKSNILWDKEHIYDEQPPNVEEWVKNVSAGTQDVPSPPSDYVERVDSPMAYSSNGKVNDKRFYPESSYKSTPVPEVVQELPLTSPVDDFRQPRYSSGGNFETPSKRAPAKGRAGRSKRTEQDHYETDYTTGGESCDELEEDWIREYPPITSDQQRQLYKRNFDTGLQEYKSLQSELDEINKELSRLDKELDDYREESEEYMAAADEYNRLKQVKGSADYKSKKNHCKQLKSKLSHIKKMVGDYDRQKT
Experiment: co-IP

The chains behind the UniProt entries cited, without tags or fusion partners. Where a name states a change or a piece, a line headed by the entry shows the natural chain unless it says otherwise. A line that says so, or that is headed by a name, gives the form on record, which may keep a tag or linker.
UniProt Q9H2G2: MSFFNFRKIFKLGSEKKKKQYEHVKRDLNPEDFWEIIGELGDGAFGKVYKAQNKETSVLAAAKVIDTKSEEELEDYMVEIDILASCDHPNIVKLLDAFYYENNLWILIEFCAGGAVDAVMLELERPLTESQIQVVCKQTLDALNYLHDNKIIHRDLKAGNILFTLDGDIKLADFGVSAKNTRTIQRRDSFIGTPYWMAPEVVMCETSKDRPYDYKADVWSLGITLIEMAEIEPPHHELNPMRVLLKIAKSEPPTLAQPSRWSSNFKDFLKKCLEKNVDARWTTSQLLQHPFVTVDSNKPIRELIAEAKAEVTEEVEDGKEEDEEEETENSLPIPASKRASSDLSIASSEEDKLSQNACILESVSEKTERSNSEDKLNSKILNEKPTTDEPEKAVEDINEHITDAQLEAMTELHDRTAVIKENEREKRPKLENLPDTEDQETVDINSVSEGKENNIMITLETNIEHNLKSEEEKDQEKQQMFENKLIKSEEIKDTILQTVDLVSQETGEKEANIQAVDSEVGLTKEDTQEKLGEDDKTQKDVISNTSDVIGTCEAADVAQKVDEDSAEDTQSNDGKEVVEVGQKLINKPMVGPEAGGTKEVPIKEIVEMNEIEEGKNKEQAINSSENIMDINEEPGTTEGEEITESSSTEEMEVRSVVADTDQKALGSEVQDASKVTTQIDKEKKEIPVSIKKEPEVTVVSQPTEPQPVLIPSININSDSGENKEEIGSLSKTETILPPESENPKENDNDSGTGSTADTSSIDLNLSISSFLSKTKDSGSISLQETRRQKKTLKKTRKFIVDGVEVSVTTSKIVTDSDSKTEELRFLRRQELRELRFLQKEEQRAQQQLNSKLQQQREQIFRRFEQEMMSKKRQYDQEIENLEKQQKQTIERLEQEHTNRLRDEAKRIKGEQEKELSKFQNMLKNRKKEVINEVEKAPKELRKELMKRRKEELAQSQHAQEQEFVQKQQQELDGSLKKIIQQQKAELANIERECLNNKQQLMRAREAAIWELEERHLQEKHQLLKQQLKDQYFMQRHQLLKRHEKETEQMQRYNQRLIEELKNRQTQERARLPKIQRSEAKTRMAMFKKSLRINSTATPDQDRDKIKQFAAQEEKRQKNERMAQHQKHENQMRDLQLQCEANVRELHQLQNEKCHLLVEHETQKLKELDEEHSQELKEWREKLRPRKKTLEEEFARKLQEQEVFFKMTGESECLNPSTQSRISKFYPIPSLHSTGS
STE20-like protein kinase (SLK), short isoform SLK-S, HA-tagged (Q9H2G2-2, form named): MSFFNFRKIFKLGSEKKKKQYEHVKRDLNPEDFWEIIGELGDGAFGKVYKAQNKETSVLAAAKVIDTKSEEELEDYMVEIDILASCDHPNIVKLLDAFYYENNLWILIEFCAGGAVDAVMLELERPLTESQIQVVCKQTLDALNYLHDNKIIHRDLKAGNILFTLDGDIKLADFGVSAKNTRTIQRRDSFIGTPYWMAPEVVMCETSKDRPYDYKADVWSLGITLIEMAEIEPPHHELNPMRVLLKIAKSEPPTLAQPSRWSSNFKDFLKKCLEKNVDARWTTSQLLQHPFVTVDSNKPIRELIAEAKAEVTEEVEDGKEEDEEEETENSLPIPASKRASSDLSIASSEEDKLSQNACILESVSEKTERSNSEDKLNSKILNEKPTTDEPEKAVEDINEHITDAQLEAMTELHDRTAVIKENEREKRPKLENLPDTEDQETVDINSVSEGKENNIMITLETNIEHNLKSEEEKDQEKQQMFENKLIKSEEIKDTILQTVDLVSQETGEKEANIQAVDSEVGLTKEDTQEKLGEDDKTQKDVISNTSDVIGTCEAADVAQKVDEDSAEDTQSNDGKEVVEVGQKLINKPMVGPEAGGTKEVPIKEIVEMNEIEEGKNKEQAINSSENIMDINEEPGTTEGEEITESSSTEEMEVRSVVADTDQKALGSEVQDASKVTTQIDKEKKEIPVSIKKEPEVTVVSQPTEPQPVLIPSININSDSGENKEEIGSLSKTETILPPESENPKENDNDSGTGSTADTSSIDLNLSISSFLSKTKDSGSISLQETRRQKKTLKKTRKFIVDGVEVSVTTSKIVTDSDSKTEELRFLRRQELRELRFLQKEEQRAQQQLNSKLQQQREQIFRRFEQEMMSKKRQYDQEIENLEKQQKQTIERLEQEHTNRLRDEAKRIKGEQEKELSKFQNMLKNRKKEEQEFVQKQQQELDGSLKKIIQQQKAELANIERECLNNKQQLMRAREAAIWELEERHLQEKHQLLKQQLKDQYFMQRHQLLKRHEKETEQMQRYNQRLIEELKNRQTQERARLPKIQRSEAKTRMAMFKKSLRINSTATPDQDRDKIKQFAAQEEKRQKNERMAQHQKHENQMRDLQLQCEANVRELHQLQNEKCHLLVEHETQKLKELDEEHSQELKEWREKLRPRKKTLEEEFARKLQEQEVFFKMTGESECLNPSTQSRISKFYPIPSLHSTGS

Substance	binding
STE20-like protein kinase (SLK), long isoform SLK-L, HA-tagged (from UniProt Q9H2G2 1-1235)	binds weakly
STE20-like protein kinase (SLK), short isoform SLK-S, HA-tagged (from UniProt Q9H2G2-2 1-1204)	binds
